No constants are given. Whether binding was seen depends on the method and setting. Some entries that bind do so weakly or less than the wild type. Tags and fused reporters may be left off the sequences shown.

Protein sequences, listed by entry. Tags and fused reporters are not part of them. Residues count along the entry.
UniProt P53350, residues 345-603: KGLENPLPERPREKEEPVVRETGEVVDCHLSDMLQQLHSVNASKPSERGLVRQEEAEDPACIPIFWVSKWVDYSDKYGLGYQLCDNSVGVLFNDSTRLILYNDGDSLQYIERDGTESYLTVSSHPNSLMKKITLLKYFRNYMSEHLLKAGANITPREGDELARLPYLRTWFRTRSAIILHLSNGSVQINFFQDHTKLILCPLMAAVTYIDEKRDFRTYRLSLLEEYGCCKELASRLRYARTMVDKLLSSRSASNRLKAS

The experiment deals with Polo-box domain (PBD) of human PLK1 as used in the SEC experiments of Fig. 5F-H (human) (UniProt P53350). In words: SEC; analytical SEC of Fig. 5F, 50 mM HEPES pH 7.5, 150 mM NaCl, 5% glycerol, 1 mM TCEP, 4 °C; kinase domain, PBD and MAP205 mixed; both purified. (In general: Size exclusion chromatography separates by hydrodynamic size, large species first.)

B1: MBP-Map205^264-322-His (domain or fragment, UniProt P23226 264-322)
chain: GVQPRPFLPGGTLDDLVAESPRKEFARINMDGIAVPDEREFDIEADMRPHELEQESDTF
Take B1: the binding entry is “binds”.

Values taken from publication PMC13161223, “Molecular anatomy of PLK1 master docking motifs” (Nature Communications, 2026).
